Literature values in paper PMC2695546 (Psychopharmacology, 2009).

Molecular target: NMDA receptors
Conditions: ref Whittemore et al. [1997]; Coughenour and Cordon [1997]; cited from earlier work

O=C(CCCN1CCC(O)(c2ccc(Cl)cc2)CC1)c1ccc(F)cc1 [Haloperidol, haloperidol]
Ki for NMDA receptors: micromolar range
